{"source": "patent US11077159B2", "about": "“Compositions from halophyte plants and methods of use thereof” (KHALIFA UNIVERSITY OF SCIENCE AND TECHNOLOGY, priority 2017, dated 2021)", "test_system": "IL-8 release of NHEK", "experiment": "IL-8 release of NHEK stimulated by PMA (ELISA), anti-inflammatory", "type": "cell-based, human", "settings": "10^−9M", "text": "The matrix metalloproteinase-1 (MMP-1) assay using a specific ELISA kit was used to evaluate anti-aging properties. The migration/proliferation of NHEK using kinetic image analysis of the wound recovery was used to evaluate cell renewal properties. The IL-8 release on NHEK stimulated by PMA using a specific ELISA kit was used to evaluate anti-inflammatory properties.", "data": [{"smiles": "CN[C@@H]1C[C@H]2O[C@@](C)([C@@H]1OC)n1c3ccccc3c3c4c(c5c6ccccc6n2c5c31)C(=O)NC4", "note": "[Staurosporine]", "values": [{"measurement": "IL-8 % Inhibition", "value": 48, "unit": "%"}, {"measurement": "inhibition at 0.001 µM", "setting": "Homo sapiens, NHEK", "value": 50, "unit": "%"}]}]}
